# For at least one compound, name, drawing or mass did not settle the structure.
# Tested on: virus infections
# Assay: Antiviral screening program, several viruses
# Details: mouse, in vivo
compound,measurement,value
O=C(C=NO)c1ccccc1 [phenylglyoxaloxime],activity (in words),active in the practice of this invention
